For the assay, the target named is T1, PPE68 of M. tuberculosis (endogenous in strain mc^26020) (M. tuberculosis (endogenous in M. tuberculosis mc^26020)) (UniProt P9WHW9).
T1 sequence: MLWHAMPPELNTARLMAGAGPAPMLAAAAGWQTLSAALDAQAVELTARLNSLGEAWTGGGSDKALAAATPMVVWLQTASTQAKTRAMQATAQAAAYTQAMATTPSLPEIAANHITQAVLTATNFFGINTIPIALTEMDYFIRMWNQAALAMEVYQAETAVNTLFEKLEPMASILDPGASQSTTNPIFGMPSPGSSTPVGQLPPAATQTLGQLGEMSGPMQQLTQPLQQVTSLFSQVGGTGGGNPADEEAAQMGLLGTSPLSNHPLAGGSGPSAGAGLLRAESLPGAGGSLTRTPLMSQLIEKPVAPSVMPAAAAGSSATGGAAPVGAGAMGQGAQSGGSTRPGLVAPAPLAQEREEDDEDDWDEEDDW
As to the kind of experiment: native gel or EMSA. On the technique in general: In EMSA bound probe runs differently from free probe, usually more slowly.

Results are given in words; binding and its absence hold for the method and conditions named. Binding can be weak; no strength is given.

Experimental findings from paper PMC9765416 are described below.

Turning to EspG1 chaperone of M. tuberculosis, the binding result is on record as “binds”.
